PubChem BioAssay AID1224830, NIAID | 2016
Here is one part, drawn at random, of about 18,000 reagents tested. In the full data, about 2,900 (16%) are marked active. 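Calls are made per well; low scores hint the gene aids the LPS response, high scores that it dampens it.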 Repeated entries: four replicate wells of each siRNA pool. Reagent sequences are not shown.

- Purpose: 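Genes whose knock-down alters the TNF-alpha reporter response to LPS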 (primary screen)
- Cell system: human THP-1 monocytic leukaemia cells, TNF dual-luciferase reporter clone, PMA-differentiated to macrophage-like cells
- Reagent: siRNA pool against human genes, 50 nM
- Duration: LPS for 4 h, given about 3 days after siRNA transfection
- Conditions: bacterial LPS (TLR4 ligand), 10 ng/ml
- Detection: 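Ratio of firefly to renilla light, scaled to the plate median and expressed as a robust z-score per replicate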
- Reading the numbers: TNF reporter robust z-score: higher = stronger TNF reporter response to LPS
- Rule for the call: 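a well is active when its z-score exceeds 2.8 or falls below -1.5; control wells carry no call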

| target gene | TNF reporter robust z-score | Outcome |
| --- | --- | --- |
| GOLGA3 (golgin A3) | 0.82 | inactive |
| GOLGA3 (golgin A3) | 0.31 | inactive |
| GOLGA3 (golgin A3) | 0.01 | inactive |
| GOLGA3 (golgin A3) | 1.85 | inactive |
| GLS (glutaminase) | 0.92 | inactive |
| GLS (glutaminase) | 0.95 | inactive |
| GLS (glutaminase) | 0.12 | inactive |
| GLS (glutaminase) | 1.09 | inactive |
| IGFBP7 (insulin like growth factor binding protein 7) | -1.24 | inactive |
| IGFBP7 (insulin like growth factor binding protein 7) | -0.11 | inactive |
| IGFBP7 (insulin like growth factor binding protein 7) | -1.16 | inactive |
| IGFBP7 (insulin like growth factor binding protein 7) | -0.92 | inactive |
| PSMA3 (proteasome 20S subunit alpha 3) | -1.16 | inactive |
| PSMA3 (proteasome 20S subunit alpha 3) | -1.06 | inactive |
| PSMA3 (proteasome 20S subunit alpha 3) | -1.56 | active |
| PSMA3 (proteasome 20S subunit alpha 3) | -0.87 | inactive |
| LKAAEAR1 (LKAAEAR motif containing 1) | -1.77 | active |
| LKAAEAR1 (LKAAEAR motif containing 1) | -1.74 | active |
| LKAAEAR1 (LKAAEAR motif containing 1) | -2.14 | active |
| LKAAEAR1 (LKAAEAR motif containing 1) | -1.86 | active |
| GPR31 (G protein-coupled receptor 31) | 0.75 | inactive |
| GPR31 (G protein-coupled receptor 31) | -0.01 | inactive |
| GPR31 (G protein-coupled receptor 31) | 0.29 | inactive |
| GPR31 (G protein-coupled receptor 31) | 1.21 | inactive |
| LCP2 (lymphocyte cytosolic protein 2) | -0.51 | inactive |
| LCP2 (lymphocyte cytosolic protein 2) | -0.33 | inactive |
| LCP2 (lymphocyte cytosolic protein 2) | 0.2 | inactive |
| LCP2 (lymphocyte cytosolic protein 2) | 0.64 | inactive |
| CHMP2B (charged multivesicular body protein 2B) | 0.14 | inactive |
| CHMP2B (charged multivesicular body protein 2B) | 0.44 | inactive |
| CHMP2B (charged multivesicular body protein 2B) | -0.69 | inactive |
| CHMP2B (charged multivesicular body protein 2B) | -1.44 | inactive |

Ordered by “TNF reporter robust z-score” (low to high): 8 of the entries above
| target gene | TNF reporter robust z-score | Outcome |
| --- | --- | --- |
| CHMP2B (charged multivesicular body protein 2B) | -1.44 | inactive |
| CHMP2B (charged multivesicular body protein 2B) | -0.69 | inactive |
| LCP2 (lymphocyte cytosolic protein 2) | -0.51 | inactive |
| LCP2 (lymphocyte cytosolic protein 2) | -0.33 | inactive |
| CHMP2B (charged multivesicular body protein 2B) | 0.14 | inactive |
| LCP2 (lymphocyte cytosolic protein 2) | 0.2 | inactive |
| CHMP2B (charged multivesicular body protein 2B) | 0.44 | inactive |
| LCP2 (lymphocyte cytosolic protein 2) | 0.64 | inactive |

The listing continues:
| target gene | TNF reporter robust z-score | Outcome |
| --- | --- | --- |
| TAL2 (TAL bHLH transcription factor 2) | -0.66 | inactive |
| TAL2 (TAL bHLH transcription factor 2) | -0.14 | inactive |
| TAL2 (TAL bHLH transcription factor 2) | -0.75 | inactive |
| TAL2 (TAL bHLH transcription factor 2) | 0.06 | inactive |
| ACBD7 (acyl-CoA binding domain containing 7) | 1.18 | inactive |
| ACBD7 (acyl-CoA binding domain containing 7) | 1.39 | inactive |
| ACBD7 (acyl-CoA binding domain containing 7) | -0.13 | inactive |
| ACBD7 (acyl-CoA binding domain containing 7) | 0.65 | inactive |
| ITGB1 (integrin subunit beta 1) | -1.28 | inactive |
| ITGB1 (integrin subunit beta 1) | -0.34 | inactive |
| ITGB1 (integrin subunit beta 1) | -1.34 | inactive |
| ITGB1 (integrin subunit beta 1) | -0.82 | inactive |
| CYSLTR2 (cysteinyl leukotriene receptor 2) | -0.28 | inactive |
| CYSLTR2 (cysteinyl leukotriene receptor 2) | -0.17 | inactive |
| CYSLTR2 (cysteinyl leukotriene receptor 2) | -0.24 | inactive |
| CYSLTR2 (cysteinyl leukotriene receptor 2) | 0.13 | inactive |
| CCR9 (C-C motif chemokine receptor 9) | -0.77 | inactive |
| CCR9 (C-C motif chemokine receptor 9) | 0.98 | inactive |
| CCR9 (C-C motif chemokine receptor 9) | -1.2 | inactive |
| CCR9 (C-C motif chemokine receptor 9) | 0.45 | inactive |
| GLRX3 (glutaredoxin 3) | -1.44 | inactive |
| GLRX3 (glutaredoxin 3) | -1.21 | inactive |
| GLRX3 (glutaredoxin 3) | -0.93 | inactive |
| GLRX3 (glutaredoxin 3) | -0.03 | inactive |
| PRDM6 (PR/SET domain 6) | 1.42 | inactive |
| PRDM6 (PR/SET domain 6) | 0.1 | inactive |
| PRDM6 (PR/SET domain 6) | 0.62 | inactive |
| PRDM6 (PR/SET domain 6) | 0.6 | inactive |
| MT1HL1 (metallothionein 1H like 1) | -1.13 | inactive |
| MT1HL1 (metallothionein 1H like 1) | -0.64 | inactive |
| MT1HL1 (metallothionein 1H like 1) | -0.7 | inactive |
| MT1HL1 (metallothionein 1H like 1) | -1.37 | inactive |
| TP53I11 (tumor protein p53 inducible protein 11) | -0.67 | inactive |
| TP53I11 (tumor protein p53 inducible protein 11) | -0.81 | inactive |
| TP53I11 (tumor protein p53 inducible protein 11) | -1.07 | inactive |
| TP53I11 (tumor protein p53 inducible protein 11) | -1 | inactive |
| TACC3 (transforming acidic coiled-coil containing protein 3) | -1.23 | inactive |
| TACC3 (transforming acidic coiled-coil containing protein 3) | -1.47 | inactive |
| TACC3 (transforming acidic coiled-coil containing protein 3) | -1.05 | inactive |
| TACC3 (transforming acidic coiled-coil containing protein 3) | -0.65 | inactive |
| ADPGK (ADP dependent glucokinase) | 0.86 | inactive |
| ADPGK (ADP dependent glucokinase) | 2.68 | inactive |
| ADPGK (ADP dependent glucokinase) | 2.34 | inactive |
| ADPGK (ADP dependent glucokinase) | 1.42 | inactive |
